This assay has as its target GFP–ZO-1 (UniProt Q07157). Put plainly: client partitioning into condensates in cells (fluorescence microscopy); HEK293 cells coexpressing ZO-1 with GFP and clients with mCherry; client intensity inside against outside the ZO-1 condensate, background subtracted (partitioning coefficient).

Sequences of proteins named here, by UniProt entry; tags and fusion partners are left off.
UniProt Q07157: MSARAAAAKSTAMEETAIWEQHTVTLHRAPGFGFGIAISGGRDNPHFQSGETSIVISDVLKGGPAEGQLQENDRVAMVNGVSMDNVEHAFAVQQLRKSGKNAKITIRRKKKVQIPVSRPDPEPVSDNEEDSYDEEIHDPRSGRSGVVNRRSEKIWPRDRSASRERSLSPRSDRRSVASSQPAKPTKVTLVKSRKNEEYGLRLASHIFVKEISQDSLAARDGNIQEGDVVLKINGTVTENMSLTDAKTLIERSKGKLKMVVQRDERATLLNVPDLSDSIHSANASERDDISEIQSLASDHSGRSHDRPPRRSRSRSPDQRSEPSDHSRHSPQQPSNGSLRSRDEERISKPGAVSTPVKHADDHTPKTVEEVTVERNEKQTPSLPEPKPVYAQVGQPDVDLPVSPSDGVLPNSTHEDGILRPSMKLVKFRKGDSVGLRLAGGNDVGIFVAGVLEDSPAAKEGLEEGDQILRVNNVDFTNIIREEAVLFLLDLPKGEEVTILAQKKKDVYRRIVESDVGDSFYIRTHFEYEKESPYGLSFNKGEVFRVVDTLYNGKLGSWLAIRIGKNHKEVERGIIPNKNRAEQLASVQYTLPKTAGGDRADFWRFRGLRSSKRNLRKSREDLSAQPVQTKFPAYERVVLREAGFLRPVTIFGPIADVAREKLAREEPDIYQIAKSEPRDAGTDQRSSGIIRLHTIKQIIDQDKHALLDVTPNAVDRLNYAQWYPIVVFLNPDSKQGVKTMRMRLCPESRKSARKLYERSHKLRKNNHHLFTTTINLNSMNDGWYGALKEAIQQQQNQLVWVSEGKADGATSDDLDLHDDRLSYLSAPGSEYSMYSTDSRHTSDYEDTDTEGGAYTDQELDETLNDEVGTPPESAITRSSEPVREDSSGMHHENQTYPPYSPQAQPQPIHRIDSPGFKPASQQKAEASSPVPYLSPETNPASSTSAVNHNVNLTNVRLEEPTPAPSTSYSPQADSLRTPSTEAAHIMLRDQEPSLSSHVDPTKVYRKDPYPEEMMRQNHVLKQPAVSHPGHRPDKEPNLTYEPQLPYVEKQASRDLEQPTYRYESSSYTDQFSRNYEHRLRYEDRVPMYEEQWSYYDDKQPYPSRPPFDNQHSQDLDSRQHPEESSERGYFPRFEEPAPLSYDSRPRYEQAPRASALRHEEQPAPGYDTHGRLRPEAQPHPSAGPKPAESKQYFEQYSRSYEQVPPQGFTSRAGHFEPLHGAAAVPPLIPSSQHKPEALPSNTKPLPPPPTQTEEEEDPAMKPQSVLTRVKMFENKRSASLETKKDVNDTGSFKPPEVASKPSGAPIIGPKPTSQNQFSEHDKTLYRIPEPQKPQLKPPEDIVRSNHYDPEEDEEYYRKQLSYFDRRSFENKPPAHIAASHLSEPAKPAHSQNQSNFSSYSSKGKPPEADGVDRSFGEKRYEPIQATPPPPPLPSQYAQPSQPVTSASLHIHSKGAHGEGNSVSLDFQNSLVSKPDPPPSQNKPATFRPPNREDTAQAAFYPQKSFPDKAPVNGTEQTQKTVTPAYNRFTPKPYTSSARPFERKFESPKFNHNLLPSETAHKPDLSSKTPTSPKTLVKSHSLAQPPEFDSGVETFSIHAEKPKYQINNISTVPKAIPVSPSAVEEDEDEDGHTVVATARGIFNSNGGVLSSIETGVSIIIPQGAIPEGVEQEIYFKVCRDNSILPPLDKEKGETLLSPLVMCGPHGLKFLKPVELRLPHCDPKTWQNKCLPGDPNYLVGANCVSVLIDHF
UniProt Q8NI35: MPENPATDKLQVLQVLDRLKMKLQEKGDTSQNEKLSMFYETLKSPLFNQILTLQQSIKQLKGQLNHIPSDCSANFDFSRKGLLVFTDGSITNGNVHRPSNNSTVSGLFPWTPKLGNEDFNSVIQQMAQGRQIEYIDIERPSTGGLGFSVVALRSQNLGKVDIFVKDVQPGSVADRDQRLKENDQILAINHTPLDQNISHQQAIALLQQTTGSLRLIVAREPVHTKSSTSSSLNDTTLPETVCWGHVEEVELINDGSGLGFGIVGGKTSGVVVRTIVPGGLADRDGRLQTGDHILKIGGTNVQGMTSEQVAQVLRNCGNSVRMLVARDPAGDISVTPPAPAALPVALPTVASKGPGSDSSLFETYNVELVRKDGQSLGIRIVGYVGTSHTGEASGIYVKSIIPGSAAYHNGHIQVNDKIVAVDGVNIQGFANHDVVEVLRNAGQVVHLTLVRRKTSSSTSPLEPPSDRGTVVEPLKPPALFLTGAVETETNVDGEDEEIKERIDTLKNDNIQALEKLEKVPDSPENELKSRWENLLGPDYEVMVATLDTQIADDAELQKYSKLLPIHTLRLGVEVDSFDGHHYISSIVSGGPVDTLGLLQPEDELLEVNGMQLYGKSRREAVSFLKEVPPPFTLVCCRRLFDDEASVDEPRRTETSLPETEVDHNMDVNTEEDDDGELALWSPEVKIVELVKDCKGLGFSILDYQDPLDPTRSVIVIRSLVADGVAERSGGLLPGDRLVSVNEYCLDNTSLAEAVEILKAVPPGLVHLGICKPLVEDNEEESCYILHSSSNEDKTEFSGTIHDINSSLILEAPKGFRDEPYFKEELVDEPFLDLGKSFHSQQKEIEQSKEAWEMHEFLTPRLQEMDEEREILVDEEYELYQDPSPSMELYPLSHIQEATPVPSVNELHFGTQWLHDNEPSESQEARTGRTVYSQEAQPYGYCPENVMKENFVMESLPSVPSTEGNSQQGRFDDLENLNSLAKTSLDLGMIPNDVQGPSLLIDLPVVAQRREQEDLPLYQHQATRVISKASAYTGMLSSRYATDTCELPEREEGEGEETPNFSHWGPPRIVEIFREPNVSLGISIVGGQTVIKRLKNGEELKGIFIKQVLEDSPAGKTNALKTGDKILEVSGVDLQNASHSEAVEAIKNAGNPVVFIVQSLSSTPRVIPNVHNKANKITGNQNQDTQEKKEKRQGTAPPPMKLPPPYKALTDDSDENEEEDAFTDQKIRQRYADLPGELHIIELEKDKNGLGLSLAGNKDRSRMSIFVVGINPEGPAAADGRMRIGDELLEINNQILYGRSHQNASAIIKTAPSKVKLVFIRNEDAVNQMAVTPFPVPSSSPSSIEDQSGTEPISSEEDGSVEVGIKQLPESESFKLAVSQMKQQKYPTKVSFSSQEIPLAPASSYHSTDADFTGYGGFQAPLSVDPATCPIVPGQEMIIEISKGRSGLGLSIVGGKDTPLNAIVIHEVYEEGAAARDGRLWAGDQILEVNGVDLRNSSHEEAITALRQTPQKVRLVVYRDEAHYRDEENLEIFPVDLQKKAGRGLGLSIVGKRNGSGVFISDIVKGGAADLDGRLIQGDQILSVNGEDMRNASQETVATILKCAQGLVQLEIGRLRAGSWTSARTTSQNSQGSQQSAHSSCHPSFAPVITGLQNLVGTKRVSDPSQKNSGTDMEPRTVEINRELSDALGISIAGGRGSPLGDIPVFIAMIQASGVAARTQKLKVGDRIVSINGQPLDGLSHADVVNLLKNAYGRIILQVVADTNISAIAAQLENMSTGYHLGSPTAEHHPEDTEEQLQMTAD

Results are given in words; binding and its absence hold for the method and conditions named. Some binding calls cover weakened binding; strength is not graded here.

Take “full length PATJ labelled with mCherry (from UniProt Q8NI35 1-1801)”: the binding result is recorded as “binds”.
